# Assay results published in the supplement of paper PMC3334620.
# The full ranking holds about 33,000 sequences; the median of “E-score (-0.5 to 0.5)” is about -0.016, and the highest 2% start at about 0.3. Some of the results follow.
# Biological target: T1, Yer184c (UniProt P39961)
# T1 sequence: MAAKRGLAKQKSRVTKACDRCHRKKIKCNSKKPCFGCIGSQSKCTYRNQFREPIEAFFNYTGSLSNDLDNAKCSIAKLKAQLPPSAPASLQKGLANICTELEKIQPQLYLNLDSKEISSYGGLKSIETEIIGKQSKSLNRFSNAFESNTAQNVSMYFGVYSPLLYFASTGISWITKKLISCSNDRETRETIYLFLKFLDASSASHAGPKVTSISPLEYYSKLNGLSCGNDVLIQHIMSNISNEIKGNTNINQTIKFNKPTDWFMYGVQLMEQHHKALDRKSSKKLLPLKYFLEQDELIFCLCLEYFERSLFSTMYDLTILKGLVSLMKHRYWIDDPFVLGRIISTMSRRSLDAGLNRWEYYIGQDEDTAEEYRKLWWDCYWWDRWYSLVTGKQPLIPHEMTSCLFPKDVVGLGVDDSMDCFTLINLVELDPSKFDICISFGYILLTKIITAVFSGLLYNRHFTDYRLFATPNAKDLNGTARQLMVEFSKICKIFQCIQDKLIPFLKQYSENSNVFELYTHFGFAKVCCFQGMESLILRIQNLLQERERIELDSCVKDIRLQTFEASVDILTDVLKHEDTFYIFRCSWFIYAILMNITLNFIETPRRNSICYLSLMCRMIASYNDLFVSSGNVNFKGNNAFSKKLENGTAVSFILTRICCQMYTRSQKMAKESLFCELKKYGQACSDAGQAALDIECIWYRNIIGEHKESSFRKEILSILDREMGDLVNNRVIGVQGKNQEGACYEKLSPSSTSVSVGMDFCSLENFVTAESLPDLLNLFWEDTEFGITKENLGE
# Assay: PBM E-score (8-mer binding enrichment) (E-score (-0.5 to 0.5)); higher = stronger / more preferred TF binding
# Details: protein concentration: 100 nM; construct: GST-full length
# Outline: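 Yeast transcription factors, full-length or as DNA-binding domains, were expressed with a GST tag using PURExpress in vitro transcription/translation. At about 100-200 nM they were applied to universal all-10-mer Agilent arrays, double-stranded by primer extension on fresh or once-stripped slides. Fluorescent anti-GST detected bound protein, and masliner normalised the scans. E-scores for ungapped eight-base words, pooled with reverse complements, came from the Universal PBM Analysis Suite.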
row,Sequence,PBM E-score
1,TGTTTCAA,0.153
2,ATTTCCGA,0.359
3,CTAGACCC,-0.174
4,GCAATATA,-0.0561
5,AAGTCTGC,-0.12
6,AAACAGCA,0.118
7,AACAAAGA,0.168
8,CTGGAGTA,-0.192
9,CTGTGCGA,-0.127
10,CAGGCTGG,-0.215
11,CTAATCCC,-0.108
12,AAGCACAC,-0.138
13,ATCCCGGC,0.299
14,CTATCGGA,0.319
15,AAACCTCC,-0.152
16,AGTTCTGC,0.0148
17,ACTAATAA,0.238
18,CGCGTACG,0.0543
19,CGATCTAG,-0.142
20,ATGGGCTC,-0.238
21,ACTCCGAT,0.0525
22,AGACCTTG,-0.252
23,CGTGAGTC,-0.227
24,GCTACGGA,0.0651
25,CAACACGC,-0.119

row,Sequence,PBM E-score
1,CGCCCATC,-0.172
2,AGACTTCG,-0.197
3,ACGCCTAA,-0.00122
4,ACCCCCAA,-0.108
5,ATTGATAC,0.176
6,CACATAAA,0.285
7,GGTGTGAC,-0.271
8,CAACACTC,0.009
9,CGCCCATA,-0.176
10,TAGTCAGA,-0.0487
11,GCCGTGTA,-0.0481
12,ACTGTTGC,0.0533
13,GCCGACCC,0.0514
14,GAGTCAAA,-0.0703
15,AGCTAAGA,0.117
16,ACGTCATC,-0.245
17,CATTCTCG,0.049
18,CCATGGGC,-0.2
19,CATGATCC,-0.0443
20,GCGCCGAA,0.343
21,ACCCAGCC,-0.221
22,GGCGGTCA,0.0102
23,TAGTTAAA,0.252
24,CCTACCTA,-0.148
25,AAAGCCGA,0.174

row,Sequence,PBM E-score
1,CAGAGCCC,-0.157
2,CCGTGGGA,-0.134
3,CGAGCGAA,0.0664
4,CGTCGTAG,-0.00822
5,TTGCCCAA,-0.029
6,GTCGAGAC,0.0528
7,CCTTGACC,-0.015
8,GGCGAGAA,0.142
9,AGTCCGTG,-0.165
10,CTGAACTA,-0.0652
11,GAGGGTCC,-0.178
12,AACTCATG,0.0146
13,AATTGCAG,0.0393
14,ACGGCACG,0.194
15,CGTATGTA,-0.0664
16,TACTCACA,-0.0514
17,CGCTCAGC,0.00126
18,CGAGTGAA,0.223
19,GAAATGTA,0.209
20,CGTCTGCA,-0.104
21,AGATGTTA,-0.153
22,TGAATTCA,0.104
23,GGACATCA,0.195
24,AAAAAGTT,0.0412
25,AAACGCCT,-0.234

# Some of the entries above, set out differently:
row | Sequence | PBM E-score
24 | GCTACGGA | 0.0651
25 | CAACACGC | -0.119
1 | CGCCCATC | -0.172
2 | AGACTTCG | -0.197
3 | ACGCCTAA | -0.00122
4 | ACCCCCAA | -0.108
5 | ATTGATAC | 0.176
6 | CACATAAA | 0.285
7 | GGTGTGAC | -0.271
8 | CAACACTC | 0.009
9 | CGCCCATA | -0.176
10 | TAGTCAGA | -0.0487
11 | GCCGTGTA | -0.0481
12 | ACTGTTGC | 0.0533
13 | GCCGACCC | 0.0514
14 | GAGTCAAA | -0.0703
15 | AGCTAAGA | 0.117
16 | ACGTCATC | -0.245
17 | CATTCTCG | 0.049
18 | CCATGGGC | -0.2
19 | CATGATCC | -0.0443
20 | GCGCCGAA | 0.343
21 | ACCCAGCC | -0.221
22 | GGCGGTCA | 0.0102
23 | TAGTTAAA | 0.252
24 | CCTACCTA | -0.148
25 | AAAGCCGA | 0.174
1 | CAGAGCCC | -0.157
2 | CCGTGGGA | -0.134
3 | CGAGCGAA | 0.0664
4 | CGTCGTAG | -0.00822
5 | TTGCCCAA | -0.029
6 | GTCGAGAC | 0.0528
7 | CCTTGACC | -0.015
8 | GGCGAGAA | 0.142
9 | AGTCCGTG | -0.165
10 | CTGAACTA | -0.0652
11 | GAGGGTCC | -0.178
12 | AACTCATG | 0.0146
13 | AATTGCAG | 0.0393
14 | ACGGCACG | 0.194
15 | CGTATGTA | -0.0664
16 | TACTCACA | -0.0514
17 | CGCTCAGC | 0.00126
18 | CGAGTGAA | 0.223
19 | GAAATGTA | 0.209
20 | CGTCTGCA | -0.104
21 | AGATGTTA | -0.153
22 | TGAATTCA | 0.104

# Further records

row,Sequence,PBM E-score
1,CAGATACG,-0.0491
2,AGATATGA,0.078
3,CCACGTCA,-0.27
4,GATCGTGA,-0.0384
5,CCCCGCAC,-0.203
6,AATGTAAC,0.146
7,AGCAAATC,0.0793
8,GGAGAGGA,-0.204
9,AGGGTCAC,-0.375
10,CCAATCCG,0.174
11,TAAATGTA,0.00083
12,GAGGGTTA,-0.193
13,CTCGAAGA,0.0345
14,ATCTAGAC,-0.0638
15,GTCTGAGA,-0.0915
16,GACTTCCA,-0.16
17,CATCTCAA,0.00945
18,AAATCTCA,-0.0709
19,CAGAATAC,-0.0319
20,TGACCGCA,0.0226
21,AAGGACAG,-0.0138
22,ATATCGTA,0.0323
23,GTTAGGTA,0.0787
24,CTGCGAAC,-0.196
25,AGATATAC,0.0908

row,Sequence,PBM E-score
1,AATGGAGG,-0.198
2,ACAGGAGG,-0.228
3,GCGACGGA,0.055
4,ATAGAGCC,-0.016
5,GTAGTAAA,0.13
6,ACAACTAC,1e-05
7,GTCTTCAC,-0.0806
8,GGGGCCTA,-0.391
9,CTATCAAG,-0.0675
10,GTCTTCCA,-0.115
11,ATAATTAC,0.265
12,ACGATAAT,0.173
13,ACATAATG,0.123
14,CGCTATAG,-0.204
15,ATCCGCAG,0.123
16,GCACGTAA,-0.182
17,GGAAGCGA,-0.00432
18,GCTTGACC,-0.0737
19,ACCGGCTA,0.284
20,AAGGATAA,-0.064
21,AAAGGAGA,-0.197
22,AGAAACGC,-0.00284
23,ATGTCCGG,0.373
24,GGCAGGTA,-0.0757
25,CCAAGGTA,-0.0797

row,Sequence,PBM E-score
1,AAAGACTC,-0.158
2,GTGTTAAA,0.181
3,ATATTAGA,0.209
4,CCATGCCG,0.201
5,ATAGACTG,-0.0118
6,CGAAACTC,-0.0103
7,CCGGAACG,0.329
8,AAGGATCT,-0.168
9,AGCAGGAA,-0.00578
10,CTGTGATA,0.0316
11,ATCCGAAT,0.419
12,CGTCGTCA,-0.0193
13,TCGAACCA,-0.104
14,GCAAGAGA,-0.059
15,GCTCGTAC,-0.132
16,GGCGGTTA,0.00801
17,ACCGATTC,0.0082
18,GAATCATC,0.0812
19,CATCTGAA,0.173
20,AGTCAGGC,-0.0159
21,CTGTGGTC,-0.0663
22,AGCATTAA,-0.0361
23,ACGCGCGC,0.156
24,AAACCCCA,-0.21
25,CTATCAGA,-0.0202

row,Sequence,PBM E-score
1,ACCTCTAA,0.0296
2,AGGCTGGG,-0.309
3,AATACATG,0.00545
4,CGATATTC,0.155
5,ACGACCAG,-0.135
6,TGTATTAA,0.223
7,GAGAAGAA,0.176
8,TGCCAGAA,-0.0249
9,ACTGAGAG,-0.112
10,AGCGATTG,-0.049
11,ACTTCTAA,0.0436
12,GCCCGTCC,-0.209
13,TACTTGCA,-0.019
14,ACGGTACG,0.0949
15,AGTCGAAA,-0.143
16,CCTACATA,-0.133
17,GGGTCTGA,-0.0993
18,AGGTTCTG,-0.137
19,GTGGCATA,-0.125
20,GATACACA,-0.156
21,CATTTTGG,0.014
22,AGAAATAG,0.13
